# Data from PubChem BioAssay AID602313 (National Center for Advancing Translational Sciences (NCATS), 2012).
# Several values for one entry are separate records, joined by “and”; a condition that tells them apart may be missing. Equal values may be shown once. In all, about 390,000 compounds went through this assay and about 760 (0.19%) were called active. The shares of active, inactive and inconclusive entries below differ from those in the screen. Calls come from the whole dose curve; as a rule, active = well fitted inhibition curve with a large enough effect; inconclusive = small, poorly fitted or top-dose-only effect; inactive = flat fitted curve, though single readings scatter. Where the call is inconclusive, the potency comes from a doubtful curve fit.
# Test: qHTS for Inhibitors of Vif-A3F Interactions: qHTS; note: nearly all actives have a fitted effect of over 65% in size
# Details: HeLa A3F-eYFP + Vif (tagged APOBEC3F with the HIV-1 protein that degrades it), YFP fluorescence increase; series mostly up to 46.1 µM
# Outline: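 HeLa cells stably expressing Vif plus C-terminally eYFP-tagged A3F were seeded, incubated overnight at 37 deg C, dosed with compound, incubated overnight again at 37 deg C. Yellow fluorescence (Ex 488/Em 500-530) reported blocked Vif-mediated A3F-eYFP degradation.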
# Potency is the fitted concentration of half-maximal effect.
row,SMILES,Potency
1,CC(=O)c1cccc(NC(=O)/C=C/c2ccc([N+](=O)[O-])s2)c1,"inconclusive: 2.51 µM [inhibitor, full curve, poor fit]"
2,Cn1c(/C=C/c2ccc(Cl)cc2)nc2ccccc2c1=O,"inconclusive: 3.16 µM [inhibitor, single point]"
3,Cc1ccccc1CN1CCN(C(=O)c2cc(-c3ccncc3)nc3ccccc23)CC1,inactive
4,Oc1c(C=Nc2cccnc2)sc2ccccc12,inactive
5,N/C(=N\N=Cc1ccc2c(c1)OCO2)NN=Cc1ccc2c(c1)OCO2,"inconclusive: 35.5 µM [inhibitor, single point]"
6,COCCNC(=O)C1CCN(S(=O)(=O)c2ccc3c(c2)OCCO3)CC1,"inconclusive: 15.8 µM [inhibitor, single point]"
7,Cc1ccccc1N1CCN(Cc2cccc(C(=O)O)c2)CC1,"inconclusive: 3.16 µM [inhibitor, single point]"
8,CN1CCc2c(sc3c2C(=O)NC(c2ccccc2)N3)C1 (configuration not stated),"inconclusive: 35.5 µM [inhibitor, single point]"
9,CCOC(=O)C1=C(O)/C(=C/c2cn(CC(=O)N3CCCC3)c3ccccc23)SC1=Nc1ccccc1,"inconclusive: 12.6 µM [inhibitor, single point]"
10,CN(C)c1ncnc2c1nnn2C1OC(CO)C(O)C1O (configuration not stated),"inconclusive: 0.562 µM [inhibitor, full curve, poor fit]"
11,O=C(Cn1c(=O)oc2cc(S(=O)(=O)N3CCCCC3)ccc21)N1CCc2ccccc21,"inconclusive: 17.8 µM [inhibitor, partial curve, poor fit]"
12,Nc1c(C(=O)Nc2nc3ccccc3s2)sc2nc(-c3cccs3)ccc12,active: 7.94 µM
13,Cc1ccc(NC(=O)ON=C2CCCC2)cc1,"inconclusive: 17.8 µM [inhibitor, partial curve, poor fit]"
14,COCCn1c(SCc2nc3sc(C(=O)OC)c(C)c3c(=O)[nH]2)nc2ccccc21,"inconclusive: 14.1 µM [inhibitor, partial curve, poor fit]"
15,CC(=O)Nc1nc2ccccc2n1Cc1ccccc1C,"inconclusive: 35.5 µM [inhibitor, single point]"
16,COc1ccc(OCCNc2cc(Cl)ccc2[N+](=O)[O-])cc1,"inconclusive: 25.1 µM [inhibitor, single point]"
17,N#CC1c2ccccc2C=CN1C(=O)N(c1ccccc1)c1ccccc1 (configuration not stated),inactive
18,CCOC(=O)C1(Cc2ccc(OC)cc2)CCN(C(=O)c2cc3ccccc3[nH]2)CC1,"inconclusive: 7.94 µM [inhibitor, partial curve, poor fit]"
19,COC(=O)CN1C(=O)COc2ccc(S(=O)(=O)N3CCCCC3)cc21,inactive
20,N#CC(C#N)=C(N)CSc1cccc[n+]1[O-],"inconclusive: 35.5 µM [inhibitor, single point]"
21,COc1ccc(/C=C(\C#N)c2nc(-c3cc(Cl)ccc3OC)cs2)cc1,"inconclusive: 5.01 µM [inhibitor, single point]"
22,S=c1[nH]nc(COc2ccccc2)n1/N=C/c1ccccn1,inactive
23,COC(=O)c1ccc(Cl)cc1NC(=O)N1CC=C(c2c[nH]c3ccccc23)CC1,active: 22.4 µM

row,SMILES,Potency
1,CCn1ccnc1CN1CCCC(C(=O)c2ccc3cc(OC)ccc3c2)C1 (configuration not stated),"inconclusive: 3.55 µM [inhibitor, single point]"
2,Brc1ccc(-c2nnc3sc(CN4CCC5(CC4)OCCO5)cn23)cc1,inactive
3,CC1CCCN(C(=O)C2(NC(=O)Nc3cccc(F)c3)CCCCC2)C1 (configuration not stated),"inconclusive: 25.1 µM [inhibitor, partial curve, poor fit]"
4,OCc1cn(-c2ccccc2)nc1-c1ccco1,inactive
5,Cc1ccc(O)c(NC(=S)NC(=O)/C=C/c2ccco2)c1,inactive
6,CCc1nnc(NC(=O)CSc2nnc(-c3cc4ccccc4cc3O)n2CC)s1,inactive
7,C=CCn1c(SCc2nc3ccccc3c(=O)[nH]2)nc2scc(C3CC3)c2c1=O,"inconclusive: 12.6 µM [inhibitor, partial curve, poor fit]"
8,CCN1/C(=C/c2ccc3cc(C)ccc3[n+]2CC)Sc2cc(C)c(C)cc21,"inconclusive: 4.47 µM [inhibitor, partial curve, poor fit]"
9,CCn1cc(CN2CCC(C(=O)Nc3cccc(-c4cccc(OC)c4)c3)CC2)cn1,"inconclusive: 35.5 µM [inhibitor, single point]"
10,COc1ccc(NC(=O)C2CCOC2=O)cc1 (configuration not stated),"inconclusive: 3.16 µM [inhibitor, partial curve, poor fit]"
11,COc1cc(-n2c(C)nc3cc(C(=O)N4CCOCC4)ccc32)cc(OC)c1OC,inactive
12,O=C(OCC(=O)N1CCCC1)c1c(Cl)ccc(Cl)c1Cl,"inconclusive: 12.6 µM [inhibitor, partial curve, poor fit]"
13,O=C1OC(/C(=C\Nc2cc(Cl)ccc2O)[N+](=O)[O-])c2ccccc21 (configuration not stated),"inconclusive: 22.4 µM [inhibitor, single point]"
14,Cc1cc(-c2onc3ccc(Cl)cc23)ccc1O,"inconclusive: 35.5 µM [inhibitor, single point]"
15,O=C1[C@H](Oc2ccccc2)[C@@H](c2ccncc2)N1c1ccncc1,inactive
16,Clc1ccccc1-c1nn2c(Cn3cnc4ccccc43)nnc2s1,inactive
17,N#CC1=C(N)Oc2cc(O)ccc2C1c1ccncc1 (configuration not stated),inactive
18,Cc1cnc(NC(=O)c2ccc(-c3ccc([N+](=O)[O-])cc3)o2)s1,"inconclusive: 14.1 µM [inhibitor, partial curve, poor fit]"
19,Cc1[nH]n2c(=O)cc(-c3ccccc3Cl)nc2c1-c1ccccc1,"inconclusive: 25.1 µM [inhibitor, single point]"
20,Cc1ccc(CSc2nsc(C)c2C#N)cc1,"inconclusive: 35.5 µM [inhibitor, partial curve, poor fit]"
21,O=C(CSc1nc2ncc(Cl)cc2[nH]1)c1c[nH]c2ccccc12,"inconclusive: 25.1 µM [inhibitor, single point]"
22,COc1ccc(C(=O)c2ccc([N+](=O)[O-])cc2)c(OC)c1OC,"inconclusive: 3.16 µM [inhibitor, single point]"
23,COC(=O)c1ccc(COc2ccc(/C=C(\C#N)c3nc4ccccc4[nH]3)cc2OC)o1,"inconclusive: 35.5 µM [inhibitor, single point]"

# 3 consecutive entries from above, quoted:
row,SMILES,Potency
17,N#CC1c2ccccc2C=CN1C(=O)N(c1ccccc1)c1ccccc1 (configuration not stated),inactive
18,CCOC(=O)C1(Cc2ccc(OC)cc2)CCN(C(=O)c2cc3ccccc3[nH]2)CC1,"inconclusive: 7.94 µM [inhibitor, partial curve, poor fit]"
19,COC(=O)CN1C(=O)COc2ccc(S(=O)(=O)N3CCCCC3)cc21,inactive

# Remaining list, next part:

row,SMILES,Potency
1,O=C1Cc2cc(S(=O)(=O)N3CCN(c4ccccc4)CC3)ccc2N1,"inconclusive: 28.2 µM [inhibitor, single point] and inconclusive: 17.8 µM [inhibitor, single point]"
2,C=CCSc1nnc(NC(=O)c2ccc3c(c2)OCCO3)s1,"inconclusive: 35.5 µM [inhibitor, single point]"
3,Cc1cc(C)cc(N=Cc2[nH]c3ccc(Br)c(Cl)c3c2O)c1,"inconclusive: 3.98 µM [inhibitor, full curve, poor fit]"
4,Cn1c(N2CCOCC2)c(/C=N/OC(=O)c2ccc(F)cc2)c2ccccc21,inactive
5,C[C@@H]1NC(=O)c2cc([N+](=O)[O-])cc(I)c2OCC[C@@H](C(N)=O)NC(=O)[C@H](CCCCN)NC1=O,inactive
6,O=C(COc1ccc(S(=O)(=O)N2CCOCC2)cc1Cl)NCc1ccco1,"inconclusive: 5.62 µM [inhibitor, single point]"
7,O=[N+]([O-])c1ccc(N/N=C/c2sc(N3CCOCC3)nc2-c2ccccc2)c(S(=O)(=O)Nc2ccccc2Cl)c1,"inconclusive: 2.82 µM [inhibitor, full curve, poor fit]"
8,C/C(=N\NC(=O)c1cccc(Cl)c1)C1C(=O)c2ccccc2C1=O,inactive
9,O=C(CSc1nnc(-c2ccc(O)cc2)o1)Nc1ccccc1,"inconclusive: 35.5 µM [inhibitor, single point]"
10,CC(=O)CC1=NC(C)(C)Cc2ccccc21,"inconclusive: 6.31 µM [inhibitor, single point]"
11,CCc1cc2c(=O)c(-c3nc4ccccc4n3C)c(C(C)C)oc2c(CN2CCN(C)CC2)c1O,"inconclusive: 2.82 µM [inhibitor, single point]"
12,C=CCn1c(CSc2ccc(C)cc2)n[nH]c1=S,"inconclusive: 25.1 µM [inhibitor, single point]"
13,Cc1cc(=O)[nH]c2c1c(C)nn2C1CCOC(C)(C)C1 (configuration not stated),inactive
14,CCCCN(C)S(=O)(=O)c1ccc(C(=O)Nc2nnc(C3=COCCO3)o2)cc1,"inconclusive: 10 µM [inhibitor, partial curve]"
15,COc1ccc(NC(=O)/C=C/c2ccco2)cn1,"inconclusive: 35.5 µM [inhibitor, single point]"
16,CCOc1ccccc1NC(=O)CCCN1C(=S)NC(C)(C)CC1C (configuration not stated),"inconclusive: 35.5 µM [inhibitor, single point]"
17,COCC(C)NC(=S)NCCc1ccc(Cl)cc1Cl (configuration not stated),"inconclusive: 35.5 µM [inhibitor, single point]"
18,Cc1cc(C)n(-c2ccc(C(=O)OC(C)C(=O)Nc3ccc(C(N)=O)cc3)cc2)n1 (configuration not stated),"inconclusive: 22.4 µM [inhibitor, single point]"
19,Nc1cccc(C(=O)OCC(=O)c2ccccc2)c1,inactive
20,CC(=O)c1ccc(NC(=O)CN2C(=O)/C(=C/C=C/c3ccccc3)SC2=S)cc1,"inconclusive: 28.2 µM [inhibitor, single point]"
21,O=C(NCc1cccc(C(F)(F)F)c1)c1cccc2c1C(=O)c1ccc(N3CCC(Cc4ccccc4)CC3)cc1S2(=O)=O,active: 22.4 µM
